Results published in patent publication US7205387B2, “Recombinant polypeptide useful for neurotrophin receptor mediated gene delivery and as neurotrophin agonist” (Agency for Science, Technology and Research, priority 2003, dated 2007).
Some of these results come from one statement about several compounds together. Some compounds share one range, which may span the group rather than tell each member.

Tested on: PC12 (TrkA and p75^NTR positive) cells
Test: Gene delivery in vitro (pCAGluc luciferase reporter), PC12 cells
Assay type: cell-based, rat
Conditions: competitor present during transfection, complexes at N/P ratio of 5, 100 μM chloroquine
Protocol: A PC12 (rat pheochromocytoma) cell line was obtained from ATCC (American Type Culture Collection, Manassas, Va., USA) and cultured in RPMI-1640 medium supplemented with 10% fetal bovine serum (FBS) and 5% horse serum. PC12 cells are known to express TrkA and p75^NTR receptors. A COS7 (African green monkey kidney fibroblast) cell line was obtained from ATCC and cultured in Dulbecco's modified Eagle's medium (DMEM) supplemented with 10% fetal bovine serum, 50 U/ml penicillin, and 50 μg/ml streptomycin. The cells were maintained in a 37° C., 5% CO2, humidified incubator.
To determine the transfection efficiencies of our nucleic acid delivery systems, we employ a reporter plasmid, pCAGluc (a gift from Yoshiharu Matsuura, National Institute of Infectious Diseases, Tokyo, Japan), encoding firefly luciferase under the control of the composite promoter, CAG. CAG comprises the chicken β-actin promoter and the cytomegalovirus immediate early enhancer.
TrkA-targeting gene delivery complexes were tested for transfection efficiency in vitro in PC12 (TrkA and p75^NTR positive) cells and COS7 (neurotrophin receptor negative) cells. […]
One to two days after transfection, the cell culture medium was removed and the cells were rinsed in phosphate-buffered saline (PBS). […] The total protein concentration of each lysate was determined using the DC Protein assay (Bio-Rad, Hercules, Calif., USA). […]

## NL4: loop 4 of NGF and the flanking β-sheet sequences, amino acids 80–108; targeting domain only (CTTTHTFVKALTMDGKQAAWRFIRIDTAC; Nerve growth factor (NGF) from human)
  reduction of efficiency of NL4-10K/pCAGluc gene delivery by excess free competitor: 74–90%
